No constants are given. Whether binding was seen depends on the method and setting. In cells and extracts the contact can be indirect. A yes stands for co-enrichment or nearness to the bait. Other partners may have been found.
T1: Ataxin-2-like (ATXN2L) (mouse (endogenous in MEF)) (UniProt Q7TQH0)
T1 sequence: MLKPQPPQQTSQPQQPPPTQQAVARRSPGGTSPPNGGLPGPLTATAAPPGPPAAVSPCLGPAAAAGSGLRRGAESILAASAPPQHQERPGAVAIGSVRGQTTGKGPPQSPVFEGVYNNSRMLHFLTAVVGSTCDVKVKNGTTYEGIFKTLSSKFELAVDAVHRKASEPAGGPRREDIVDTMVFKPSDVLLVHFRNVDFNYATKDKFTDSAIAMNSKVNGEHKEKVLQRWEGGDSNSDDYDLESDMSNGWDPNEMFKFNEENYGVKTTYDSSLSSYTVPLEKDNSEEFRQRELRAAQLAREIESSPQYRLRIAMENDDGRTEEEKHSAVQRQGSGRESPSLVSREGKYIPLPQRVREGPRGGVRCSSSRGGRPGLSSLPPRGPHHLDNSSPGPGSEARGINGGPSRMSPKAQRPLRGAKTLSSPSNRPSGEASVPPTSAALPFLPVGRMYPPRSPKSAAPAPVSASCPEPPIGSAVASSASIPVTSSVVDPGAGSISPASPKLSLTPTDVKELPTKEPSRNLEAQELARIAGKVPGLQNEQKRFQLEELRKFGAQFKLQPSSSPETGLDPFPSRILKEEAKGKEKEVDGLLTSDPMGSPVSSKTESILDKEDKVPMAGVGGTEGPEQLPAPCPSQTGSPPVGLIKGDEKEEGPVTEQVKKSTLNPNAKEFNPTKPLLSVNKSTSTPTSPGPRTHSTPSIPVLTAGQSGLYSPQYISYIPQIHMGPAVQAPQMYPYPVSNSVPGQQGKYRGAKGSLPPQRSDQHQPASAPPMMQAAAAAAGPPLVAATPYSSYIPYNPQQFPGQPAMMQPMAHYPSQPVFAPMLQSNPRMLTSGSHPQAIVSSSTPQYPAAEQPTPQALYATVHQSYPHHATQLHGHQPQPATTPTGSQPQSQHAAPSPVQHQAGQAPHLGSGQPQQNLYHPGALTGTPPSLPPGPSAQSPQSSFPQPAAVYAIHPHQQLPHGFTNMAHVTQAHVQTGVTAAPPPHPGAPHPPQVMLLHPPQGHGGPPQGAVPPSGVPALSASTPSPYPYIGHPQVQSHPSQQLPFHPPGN

By UniProt entry, the sequences of proteins in these tests, tags left out.
UniProt A2AJ72: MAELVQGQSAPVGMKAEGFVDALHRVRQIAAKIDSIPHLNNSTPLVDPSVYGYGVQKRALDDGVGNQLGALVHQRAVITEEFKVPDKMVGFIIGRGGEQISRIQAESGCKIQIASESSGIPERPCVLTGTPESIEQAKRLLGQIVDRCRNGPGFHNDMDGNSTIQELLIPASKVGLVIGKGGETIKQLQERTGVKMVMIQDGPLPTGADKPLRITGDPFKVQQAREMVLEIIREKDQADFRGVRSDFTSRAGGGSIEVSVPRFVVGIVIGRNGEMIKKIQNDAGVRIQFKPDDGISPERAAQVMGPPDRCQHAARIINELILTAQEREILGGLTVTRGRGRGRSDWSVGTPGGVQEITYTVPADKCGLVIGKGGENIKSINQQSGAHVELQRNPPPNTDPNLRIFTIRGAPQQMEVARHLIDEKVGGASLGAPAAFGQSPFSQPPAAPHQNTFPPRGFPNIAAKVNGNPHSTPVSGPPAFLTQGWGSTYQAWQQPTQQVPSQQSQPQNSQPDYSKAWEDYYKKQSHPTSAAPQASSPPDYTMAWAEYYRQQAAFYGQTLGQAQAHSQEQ
UniProt Q9D0R8: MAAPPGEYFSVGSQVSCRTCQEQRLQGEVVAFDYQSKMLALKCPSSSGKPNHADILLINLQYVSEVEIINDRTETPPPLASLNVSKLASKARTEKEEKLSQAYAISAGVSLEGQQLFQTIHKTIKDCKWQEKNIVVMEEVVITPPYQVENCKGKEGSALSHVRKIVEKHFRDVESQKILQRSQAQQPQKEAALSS
UniProt Q6ZQ58: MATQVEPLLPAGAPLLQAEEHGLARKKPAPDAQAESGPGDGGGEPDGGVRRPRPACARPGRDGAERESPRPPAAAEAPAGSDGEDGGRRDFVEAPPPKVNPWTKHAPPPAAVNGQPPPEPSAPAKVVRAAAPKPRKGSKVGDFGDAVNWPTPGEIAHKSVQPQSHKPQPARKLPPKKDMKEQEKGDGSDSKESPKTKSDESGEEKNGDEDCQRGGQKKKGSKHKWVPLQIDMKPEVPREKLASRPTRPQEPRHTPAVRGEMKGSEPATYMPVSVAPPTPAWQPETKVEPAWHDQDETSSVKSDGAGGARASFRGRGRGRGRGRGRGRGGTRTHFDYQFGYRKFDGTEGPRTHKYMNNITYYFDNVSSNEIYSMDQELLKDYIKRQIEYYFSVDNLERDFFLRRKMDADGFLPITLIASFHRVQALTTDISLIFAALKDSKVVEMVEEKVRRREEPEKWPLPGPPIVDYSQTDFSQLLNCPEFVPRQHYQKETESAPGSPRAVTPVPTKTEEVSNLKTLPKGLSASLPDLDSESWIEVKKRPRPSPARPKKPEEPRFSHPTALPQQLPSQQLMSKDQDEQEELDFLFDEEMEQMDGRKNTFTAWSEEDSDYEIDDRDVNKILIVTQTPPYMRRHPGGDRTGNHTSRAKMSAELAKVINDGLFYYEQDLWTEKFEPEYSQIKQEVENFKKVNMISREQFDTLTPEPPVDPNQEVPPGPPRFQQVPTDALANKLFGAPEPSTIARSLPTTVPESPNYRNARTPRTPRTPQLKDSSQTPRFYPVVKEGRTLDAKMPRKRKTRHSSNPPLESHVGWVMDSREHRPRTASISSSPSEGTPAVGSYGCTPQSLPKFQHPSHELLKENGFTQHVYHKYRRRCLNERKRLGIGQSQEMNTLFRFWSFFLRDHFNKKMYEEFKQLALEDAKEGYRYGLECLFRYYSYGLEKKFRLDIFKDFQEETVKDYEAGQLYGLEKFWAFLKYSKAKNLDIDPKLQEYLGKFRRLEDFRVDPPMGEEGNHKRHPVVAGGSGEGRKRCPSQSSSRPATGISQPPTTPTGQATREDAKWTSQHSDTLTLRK


Target: T1, Ataxin-2-like (ATXN2L) (mouse (endogenous in MEF))
Assay: affinity purification with mass spectrometry

Molecule | binding
FUBP3 (from UniProt A2AJ72 1-569) | binds
LSM12 (from UniProt Q9D0R8 1-195) | binds
HNRNPK (from UniProt P61979 1-463) | binds
LARP1 (La Ribonucleoprotein 1 Translational Regulator) (from UniProt Q6ZQ58 1-1072) | binds
SYNE2 (from UniProt Q6ZWQ0 1-6874) | binds
LMOD1 (protein, UniProt Q8BVA4 1-595) MSKVAKYRRQVSEDPDIDSLLSTLSPEEMEELEKELDVVDPDGSIPVGLRQRNQTDKQPSGSFNREAMLNFCEKESKKLIQREMSVDESKQVGRKTDAKNGEEKDSDASRKAPGPRQDSDLGKEPKKGVLKKSFSRDREEADGRGGEKPKEEKVIRGIDKGRVRAAVDRKESGKDGREERAAAARKEEEKTGSVKNAGLSRDKDKKKEEVKEPSKKEEVKLTAESRNTVGRREDGRLKESSKENKKPEDEGIGSGGRDWRKEDEKVKKEENQPDKEVREESKTKAPEKQAPSCPNKPSDGQARAEEEAAPSIFDEPLEKVKNNDPEMTEVNVNNSDCITNEILVRFTEALEFNTVVKVFALANTRADDHVAFAIAIMLKANKTITSLNLDSNHITGKGILAIFRALLQNNTLTELRFHNQRHICGVKTEMEIAKLLKENTTLLKLGYHFELAGPRMTVTNLLSRNMDKQRQKRLQEQKQAQEASGEKKDRLEVPKVGALAKGSPKPSPQPSPKPAPKNSPKKAGVPAAPPPPPPPLAPPLIMENLKNSLSPATQRKMGDKVLPAQEKNSRDQLLAAIRSSNLKQLKKVEVPKLLQ | binds
G3BP2 (protein, UniProt P97379 1-482) MVMEKPSPLLVGREFVRQYYTLLNKAPEYLHRFYGRNSSYVHGGVDASGKPQEAVYGQNDIHHKVLSLNFSECHTKIRHVDAHATLSDGVVVQVMGLLSNSGQPERKFMQTFVLAPEGSVPNKFYVHNDMFRYEDEVFGDSEPELDEESEDEVEEEQEDRQPSPEPVQENANSAYYDAHPVTNGIEEPLEESSHEPEPEPESETKTEELKPQVEEKHLEELEEKSATPPPAEPASLPQEPPKAFSWASVTSKNLPPSGTVSSSGIPPHVKAPVSQPRVDAKPEVQSQPPRVREQRPRERPGFPPRGPRPGRGDMEQNDSDNRRIIRYPDSHQLFVGNLPHDIDENELKEFFMSFGNVVELRINTKGVGGKLPNFGFVVFDDSEPVQRILIAKPIMFRGEVRLNVEEKKTRAARERETRGGGDDRRDIRRNDRGPGGPRGIVGGGMMRDRDGRGPPPRGGMTQKLGSGRGTGQMEGRFTGQRR | binds
Ataxin-2 (ATXN2) (protein, UniProt O70305 1-1285) MRSSTAAVQRPAAGDPEPRRPAGWAARRSLPRTARRGGRGGAVAYPSAGPPPRGPGAPPRGPRSPPCASDCFGSNGHGASRPGSRRLLGVCGPPRPFVVVLLALAPAATPARACPPGVRASPPRSGVSSSARPAPGCPRPACEPVYGPLTMSLKPQPQPPAPATGRKPGGGLLSSPGAAPASAAVTSASVVPAPAAPVASSSAAAGGGRPGLGRGRNSSKGLPQPTISFDGIYANVRMVHILTSVVGSKCEVQVKNGGIYEGVFKTYSPKCDLVLDAAHEKSTESSSGPKREEIMESVLFKCSDFVVVQFKDTDSSYARRDAFTDSALSAKVNGEHKEKDLEPWDAGELTASEELELENDVSNGWDPNDMFRYNEENYGVVSTYDSSLSSYTVPLERDNSEEFLKREARANQLAEEIESSAQYKARVALENDDRSEEEKYTAVQRNCSDREGHGPNTRDNKYIPPGQRNREVLSWGSGRQSSPRMGQPGPGSMPSRAASHTSDFNPNAGSDQRVVNGGVPWPSPCPSHSSRPPSRYQSGPNSLPPRAATHTRPPSRPPSRPSRPPSHPSAHGSPAPVSTMPKRMSSEGPPRMSPKAQRHPRNHRVSAGRGSMSSGLEFVSHNPPSEAAAPPVARTSPAGGTWSSVVSGVPRLSPKTHRPRSPRQSSIGNSPSGPVLASPQAGIIPAEAVSMPVPAASPTPASPASNRALTPSIEAKDSRLQDQRQNSPAGSKENVKASETSPSFSKADNKGMSPVVSEHRKQIDDLKKFKNDFRLQPSSTSESMDQLLSKNREGEKSRDLIKDKTEASAKDSFIDSSSSSSNCTSGSSKTNSPSISPSMLSNAEHKRGPEVTSQGVQTSSPACKQEKDDREEKKDTTEQVRKSTLNPNAKEFNPRSFSQPKPSTTPTSPRPQAQPSPSMVGHQQPAPVYTQPVCFAPNMMYPVPVSPGVQPLYPIPMTPMPVNQAKTYRAGKVPNMPQQRQDQHHQSTMMHPASAAGPPIVATPPAYSTQYVAYSPQQFPNQPLVQHVPHYQSQHPHVYSPVIQGNARMMAPPAHAQPGLVSSSAAQFGAHEQTHAMYACPKLPYNKETSPSFYFAISTGSLAQQYAHPNAALHPHTPHPQPSATPTGQQQSQHGGSHPAPSPVQHHQHQAAQALHLASPQQQSAIYHAGLAPTPPSMTPASNTQSPQSSFPAAQQTVFTIHPSHVQPAYTTPPHMAHVPQAHVQSGMVPSHPTAHAPMMLMTTQPPGPKAALAQSALQPIPVSTTAHFPYMTHPSVQAHHQQQL | binds
nuclear poly(A) binding protein PABPN1 (protein, UniProt Q8CCS6 1-302) MAAAAAAAAAAGAAGGRGSGPGRRRHLVPGAGGEAGEGDPGGAGDYGNGLESEELEPGELLPEPEPEEEPPRPRAPPGAPGPGPGSGAPGSQEEEEEPGLVEADPGDGAIEDPELEAIKARVREMEEEAEKLKELQNEVEKQMNMSPPPGNAGPVIMSLEEKMEADARSIYVGNVDYGATAEELEAHFHGCGSVNRVTILCDKFSGHPKGFAYIEFSDKESVRTSLALDESLFRGRQIKVIPKRTNRPGISTTDRGFPRSRYRARTTNYNSSRSRFYSGFNSRPRGRIYRGRARATSWYSPY | binds
ZMAT3 (protein, UniProt O54836 1-290) MILLQQVWLPLPNRPSTSPPMSVAARSTRTLQLPPQKAFGQEASLPLAGEEDLAKRGEPDSALEELCKPLFCKLCNVTLNSAQQAQAHYQGKNHGKKLRNYYAANSCPPPARVSSVVAEPVATPLVPVPPQVGSCKPGGRVILATENDYCKLCDASFSSPAVAQAHYQGKNHAKRLRLAEAQSHSFSDSAEAGQRRTRKEGSEFKMVATRRNMNPVQSNSGPYFNARSRQRIPRDLAMCVTPSGQFYCSMCNVGAGEEVEFRQHLESKQHKSKVSEQRYRSEMENLGYVQ | binds
SFPQ (protein, UniProt Q8VIJ6 1-699) MSRDRFRSRGGGGGGFHRRGGGGGRGGLHDFRSPPPGMGLNQNRGPMGPGPGGPKPPLPPPPPHQQQQQPPPQQPPPQQPPPHQQPPPHQPPHQQPPPPPQESKPVVPQGPGSAPGVSSAPPPAVSAPPANPPTTGAPPGPGPTPTPPPAVPSTAPGPPPPSTPSSGVSTTPPQTGGPPPPPAGGAGPGPKPGPGPGGPKGGKMPGGPKPGGGPGMGAPGGHPKPPHRGGGEPRGGRQHHAPYHQQHHQGPPPGGPGPRTEEKISDSEGFKANLSLLRRPGEKTYTQRCRLFVGNLPADITEDEFKRLFAKYGEPGEVFINKGKGFGFIKLESRALAEIAKAELDDTPMRGRQLRVRFATHAAALSVRNLSPYVSNELLEEAFSQFGPIERAVVIVDDRGRSTGKGIVEFASKPAARKAFERCSEGVFLLTTTPRPVIVEPLEQLDDEDGLPEKLAQKNPMYQKERETPPRFAQHGTFEYEYSQRWKSLDEMEKQQREQVEKNMKDAKDKLESEMEDAYHEHQANLLRQDLMRRQEELRRMEELHSQEMQKRKEMQLRQEEERRRREEEMMIRQREMEEQMRRQREESYSRMGYMDPRERDMRMGGGGTMNMGDPYGSGGQKFPPLGGGGGIGYEANPGVPPATMSGSMMGSDMRTERFGQGGAGPVGGQGPRGMGPGTPAGYGRGREEYEGPNKKPRF | binds
HNRNPDL (protein, UniProt Q9Z130 1-301) MEDMNEYSNIEEFAEGSKINASKNQQDDGKMFIGGLSWDTSKKDLTEYLSRFGEVVDCTIKTDPVTGRSRGFGFVLFKDAASVDKVLELKEHKLDGKLIDPKRAKALKGKEPPKKVFVGGLSPDTSEEQIKEYFGAFGEIENIELPMDTKTNERRGFCFITYTDEEPVKKLLESRYHQIGSGKCEIKVAQPKEVYRQQQQQQKGGRGAAAGGRGGARGRGRGQGQNWNQGFNNYYDQGYGNYNSAYGGDQNYSGYGGYDYTGYNYGNYGYGQGYADYSGQQSTYGKASRGGGNHQNNYQPY | binds
MBNL2 (protein, UniProt Q8C181 1-373) MALNVAPVRDTKWLTLEVCRQYQRGTCSRSDEECKFAHPPKSCQVENGRVIACFDSLKGRCSRENCKYLHPPTHLKTQLEINGRNNLIQQKTAAAMLAQQMQFMFPGTPLHPVPTFPVGPTIGTNAAISFAPYLAPVTPGVGLVPTEVLPTTPVIVPGSPPVTVPGSTATQKLLRTDKLEVCREFQRGNCARGETDCRFAHPADSTMIDTNDNTVTVCMDYIKGRCMREKCKYFHPPAHLQAKIKAAQHQANQAAVAAQAAAAAATVMTQSTAKALKRPLEATVDLAFPPGALHPLPKRQALEKSNGASTVFNPSVLHYQQALTSAQLQQHTAFIPTVPMMHSATSATVSAATTPATSVPFAATATANQIILK | binds

Source: doi:10.1101/2025.03.06.641895
